Results are given in words; binding and its absence hold for the method and conditions named. Binding seen in cells or lysates may run through a third protein. Here binding means that the protein was enriched with, or labelled near, the bait; the list need not be complete.
B1: WIPF2 (protein, UniProt Q8TF74 1-440)
chain: MPIPPPPPPPPGPPPPPTFHQANTEQPKLSRDEQRGRGALLQDICKGTKLKKVTNINDRSAPILEKPKGSSGGYGSGGAALQPKGGLFQGGVLKLRPVGAKDGSENLAGKPALQIPSSRAAAPRPPVSAASGRPQDDTDSSRASLPELPRMQRPSLPDLSRPNTTSSTGMKHSSSAPPPPPPGRRANAPPTPLPMHSSKAPAYNREKPLPPTPGQRLHPGREGPPAPPPVKPPPSPVNIRTGPSGQSLAPPPPPYRQPPGVPNGPSSPTNESAPELPQRHNSLHRKTPGPVRGLAPPPPTSASPSLLSNRPPPPARDPPSRGAAPPPPPPVIRNGARDAPPPPPPYRMHGSEPPSRGKPPPPPSRTPAGPPPPPPPPLRNGHRDSITTVRSFLDDFESKYSFHPVEDFPAPEEYKHFQRIYPSKTNRAARGAPPLPPILR

Protein sequences, listed by entry. Tags and fused reporters are not part of them. Lines headed by an entry give the natural chain unless they say otherwise; changes in a name come on top. Chains listed by the source or under a name are the forms on record and can include a tag or linker.
BirA-Cdc42 G12V (P60953, form named): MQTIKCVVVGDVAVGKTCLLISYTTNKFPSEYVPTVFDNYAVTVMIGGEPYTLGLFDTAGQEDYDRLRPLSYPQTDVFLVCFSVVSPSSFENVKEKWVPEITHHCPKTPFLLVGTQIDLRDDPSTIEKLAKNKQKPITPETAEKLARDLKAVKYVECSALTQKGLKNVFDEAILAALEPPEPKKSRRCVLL

Key:
BirA-Cdc42 WT = BirA-Cdc42 WT (UniProt P60953); test: proximity labelling; BioID in immortalized human podocytes expressing doxycycline-inducible BirA-Rho GTPase baits; 16 h with 1 ug/mL doxycycline (0.1 ug/mL for constitutively active mutants) and 50 uM biotin; RIPA lysis; biotinylated proteins pulled down on streptavidin beads; mass spectrometry; SAINT AvgP >= 0.95; controls empty MYC-BirA vector and BirA*-Flag-GFP
[1] = biological target: BirA-Cdc42 G12V (constitutively active Cdc42) (UniProt P60953); test: as above

Row | Molecule | binding (BirA-Cdc42 WT) | binding [1]
1 | ARHGEF40 (from UniProt Q8TER5 1-1519) | binds | –
2 | B1 | – | binds
